Results are given in words; binding and its absence hold for the method and conditions named. Binding can be weak; no strength is given.

By UniProt entry, the sequences of proteins in these tests, tags left out. Where a name states a change or a piece, a line headed by the entry shows the natural chain unless it says otherwise.
UniProt Q9HYP8: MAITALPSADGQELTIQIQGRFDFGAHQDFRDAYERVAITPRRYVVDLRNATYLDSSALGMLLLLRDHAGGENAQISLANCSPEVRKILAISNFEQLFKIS

For the experiment, the target named is cytoplasmic DGC domain of HsbD (HsbDs), bacterial two-hybrid fusion (Pseudomonas aeruginosa) (UniProt Q9HYQ2). Kind of experiment: two-hybrid; bacterial two-hybrid (adenylate cyclase reconstitution) in E. coli DHM1, pKT25 and pUT18C fusions; blue colonies on LB X-gal IPTG plates after 24 h at 30°C, quantified by β-galactosidase assays.

For “anti-anti-sigma factor HsbA, bacterial two-hybrid fusion (from UniProt Q9HYP8)”, the binding result is “binds”.
Then “HptB, bacterial two-hybrid fusion (from UniProt Q9HYQ0)”, with “binds weakly”.

The record behind these values is paper PMC5085249, “The Diguanylate Cyclase HsbD Intersects with the HptB Regulatory Cascade to Control Pseudomonas aeruginosa Biofilm and Motility” (PLoS Genetics, 2016).
